Literature values, collected in patent US6303761A, “Triaminepentaacetic acid compound and paramagnetic metal complex prepared from using the compound as ligand” (Department of Health The Executive Yuan, Republic of China, priority 1999, dated 2001).
For at least one compound, name, drawing or mass did not settle the structure.

Conditions: cited from earlier work

O=C([O-])CN1CCN(CC(=O)[O-])CCN(CC(O)COCCCCOCC(O)CN2CCN(CC(=O)[O-])CCN(CC(=O)[O-])CCN(CC(=O)[O-])CC2)CCN(CC(=O)[O-])CC1.[Gd+3].[Gd+3] (centres unmarked) [{BO[Gd(DO3A)(H2 O)]2} dimer]
inner sphere water molecules of the gadolinium complex: 2
relaxivity (R1): 4.61 dm^3 mmol^-1 s^-1
rotational time (.tau.r) compared with the monomer: increases twice compared with the monomer

CCOc1ccc(C[C@@H](CN(CCN(CC(=O)O)CC(=O)O)CC(=O)O)N(CC(=O)O)CC(=O)O)cc1 [EOB-DTPA]
inner sphere water molecules of the gadolinium complex: 1
relaxivity (R1) of the gadolinium complex: 5.3 mM/s
